Laboratory results taken from the supplement of paper PMC11264405.

Assays:
Assay in all cases: minimum inhibitory concentration
vancomycin = compound: CN[C@H](CC(C)C)C(=O)N[C@H]1C(=O)N[C@@H](CC(N)=O)C(=O)N[C@H]2C(=O)N[C@H]3C(=O)N[C@H](C(=O)N[C@H](C(=O)O)c4cc(O)cc(O)c4-c4cc3ccc4O)[C@H](O)c3ccc(c(Cl)c3)Oc3cc2cc(c3O[C@@H]2O[C@H](CO)[C@@H](O)[C@H](O)[C@H]2O[C@H]2C[C@](C)(N)[C@H](O)[C@H](C)O2)Oc2ccc(cc2Cl)[C@H]1O [vancomycin]
tigecycline = compound: CN(C)c1cc(NC(=O)CNC(C)(C)C)c(O)c2c1C[C@H]1C[C@H]3[C@H](N(C)C)C(O)=C(C(N)=O)C(=O)[C@@]3(O)C(O)=C1C2=O [tigecycline]
clindamycin = compound: CCC[C@@H]1C[C@@H](C(=O)N[C@@H]([C@H]2O[C@H](SC)[C@H](O)[C@@H](O)[C@H]2O)[C@H](C)Cl)N(C)C1 [clindamycin]
fidaxomicin = compound: CCc1c(Cl)c(O)c(Cl)c(O)c1C(=O)O[C@H]1[C@H](O)[C@H](OC)[C@H](OC/C2=C\C=C\C[C@H](O)/C(C)=C/[C@H](CC)[C@@H](O[C@@H]3OC(C)(C)[C@@H](OC(=O)C(C)C)[C@H](O)[C@@H]3O)/C(C)=C/C(C)=C/C[C@@H]([C@@H](C)O)OC2=O)O[C@@H]1C [fidaxomicin]
metronidazole = compound: Cc1ncc([N+](=O)[O-])n1CCO [metronidazole]
rifampicin = compound: CO[C@H]1/C=C/O[C@@]2(C)Oc3c(C)c(O)c4c(O)c(c(/C=N/N5CCN(C)CC5)c(O)c4c3C2=O)NC(=O)/C(C)=C\C=C\[C@H](C)[C@H](O)[C@@H](C)[C@@H](O)[C@@H](C)[C@H](OC(C)=O)[C@@H]1C [rifampicin]
imipenem = compound: C[C@@H](O)[C@H]1C(=O)N2C(C(=O)O)=C(SCCNC=N)C[C@H]12 [imipenem]
linezolid = compound: CC(=O)NC[C@H]1CN(c2ccc(N3CCOCC3)c(F)c2)C(=O)O1 [linezolid]
meropenem = compound: C[C@@H](O)[C@H]1C(=O)N2C(C(=O)O)=C(S[C@@H]3CN[C@H](C(=O)N(C)C)C3)[C@H](C)[C@H]12 [meropenem]

Row | Test System | minimum inhibitory concentration (vancomycin) [µg/mL] | minimum inhibitory concentration (tigecycline) [µg/mL] | minimum inhibitory concentration (clindamycin) [µg/mL] | minimum inhibitory concentration (fidaxomicin) [µg/mL] | minimum inhibitory concentration (metronidazole) [µg/mL] | minimum inhibitory concentration (rifampicin) [µg/mL] | minimum inhibitory concentration (imipenem) [µg/mL] | minimum inhibitory concentration (linezolid) [µg/mL] | minimum inhibitory concentration (meropenem) [µg/mL]
1 | Clostridioides difficile PCR ribotype 474 isolate #266 (European region: South, country: Spain, isolate source: Human, ribotype: 474) | 0.5 | 0.06 | > 128 | 0.03 | < 0.125 | 0.002 | 4 | 2 | 4
2 | Clostridioides difficile PCR ribotype 484 isolate #267 (European region: North, country: UK, isolate source: Human, ribotype: 484) | 0.5 | < 0.03 | 2 | 0.015 | < 0.125 | < 0.001 | 2 | 2 | 2
3 | Clostridioides difficile PCR ribotype 570 isolate #401 (European region: East, country: Romania, isolate source: Animal, ribotype: 570) | 1 | < 0.03 | 8 | 0.03 | < 0.125 | < 0.001 | 2 | 2 | 2
4 | Clostridioides difficile PCR ribotype 600 isolate #269 (European region: West, country: France, isolate source: Human, ribotype: 600) | 0.5 | < 0.03 | 16 | 0.125 | 0.25 | < 0.001 | 4 | 2 | 4
5 | Clostridioides difficile PCR ribotype 626 isolate #270 (European region: South, country: Spain, isolate source: Human, ribotype: 626) | 1 | < 0.03 | 0.5 | 0.03 | < 0.125 | 0.002 | 2 | 2 | 2
6 | Clostridioides difficile PCR ribotype 695 isolate #402 (European region: West, country: Netherlands, isolate source: Animal, ribotype: 695) | 0.5 | 0.06 | < 0.125 | 0.008 | 0.5 | < 0.001 | 1 | 2 | 2
7 | Clostridioides difficile PCR ribotype 695 isolate #403 (European region: West, country: Netherlands, isolate source: Animal, ribotype: 695) | 0.5 | 0.06 | < 0.125 | 0.03 | 0.5 | < 0.001 | 1 | 2 | 2
8 | Clostridioides difficile PCR ribotype 695 isolate #404 (European region: West, country: Netherlands, isolate source: Animal, ribotype: 695) | 0.5 | 0.06 | < 0.125 | 0.015 | < 0.125 | < 0.001 | 2 | 2 | 4
9 | Clostridioides difficile PCR ribotype 695 isolate #405 (European region: West, country: Netherlands, isolate source: Animal, ribotype: 695) | 0.5 | 0.06 | < 0.125 | 0.015 | < 0.125 | < 0.001 | 2 | 2 | 2
10 | Clostridioides difficile PCR ribotype 695 isolate #406 (European region: West, country: Netherlands, isolate source: Animal, ribotype: 695) | 0.5 | 0.06 | < 0.125 | 0.015 | < 0.125 | < 0.001 | 2 | 2 | 2
11 | Clostridioides difficile PCR ribotype 815 isolate #271 (European region: North, country: UK, isolate source: Human, ribotype: 815) | 1 | 0.06 | 0.5 | 0.06 | < 0.125 | < 0.001 | 2 | 2 | 1
12 | Clostridioides difficile PCR ribotype 815 isolate #272 (European region: East, country: Romania, isolate source: Human, ribotype: 815) | 0.5 | < 0.03 | 0.25 | 0.03 | 0.25 | < 0.001 | 4 | 1 | 2
13 | Clostridioides difficile PCR ribotype 902 isolate #273 (European region: South, country: Spain, isolate source: Human, ribotype: 902) | 0.5 | 0.25 | > 128 | 0.015 | 0.25 | 0.002 | 4 | 2 | 2
14 | Clostridioides difficile PCR ribotype 902 isolate #274 (European region: South, country: Spain, isolate source: Human, ribotype: 902) | 0.5 | 0.125 | > 128 | 0.03 | 0.25 | 0.002 | 2 | 2 | 2
15 | Clostridioides difficile PCR ribotype 903 isolate #275 (European region: South, country: Spain, isolate source: Human, ribotype: 903) | 0.5 | 0.06 | 8 | 0.06 | 0.25 | 0.002 | 4 | 2 | 4
16 | Clostridioides difficile PCR ribotype 911 isolate #276 (European region: East, country: Slovakia, isolate source: Human, ribotype: 911) | 0.5 | < 0.03 | 2 | 0.015 | < 0.125 | < 0.001 | 8 | 2 | 2
17 | Clostridioides difficile PCR ribotype 920 isolate #277 (European region: West, country: Netherlands, isolate source: Human, ribotype: 920) | 1 | 0.06 | 0.5 | 0.06 | < 0.125 | < 0.001 | 2 | 2 | 4
18 | Clostridioides difficile PCR ribotype 927 isolate #279 (European region: South, country: Greece, isolate source: Human, ribotype: 927) | 1 | < 0.03 | 4 | 0.125 | < 0.125 | < 0.001 | 4 | 2 | 2
19 | Clostridioides difficile PCR ribotype 928 isolate #280 (European region: East, country: Poland, isolate source: Human, ribotype: 928) | 0.5 | < 0.03 | 8 | 0.06 | 0.25 | < 0.001 | 4 | 2 | 2

Full records as entered above. Order of values: minimum inhibitory concentration (vancomycin) [µg/mL]	minimum inhibitory concentration (tigecycline) [µg/mL]	minimum inhibitory concentration (clindamycin) [µg/mL]	minimum inhibitory concentration (fidaxomicin) [µg/mL]	minimum inhibitory concentration (metronidazole) [µg/mL]	minimum inhibitory concentration (rifampicin) [µg/mL]	minimum inhibitory concentration (imipenem) [µg/mL]	minimum inhibitory concentration (linezolid) [µg/mL]	minimum inhibitory concentration (meropenem) [µg/mL]
Clostridioides difficile PCR ribotype 626 isolate #270 (European region: South, country: Spain, isolate source: Human, ribotype: 626) as listed: 1	< 0.03	0.5	0.03	< 0.125	0.002	2	2	2
Clostridioides difficile PCR ribotype 920 isolate #277 (European region: West, country: Netherlands, isolate source: Human, ribotype: 920) as listed: 1	0.06	0.5	0.06	< 0.125	< 0.001	2	2	4
